From publication PMC12448815 come the findings set out here.

The chains behind the UniProt entries cited, without tags or fusion partners.
UniProt P48432: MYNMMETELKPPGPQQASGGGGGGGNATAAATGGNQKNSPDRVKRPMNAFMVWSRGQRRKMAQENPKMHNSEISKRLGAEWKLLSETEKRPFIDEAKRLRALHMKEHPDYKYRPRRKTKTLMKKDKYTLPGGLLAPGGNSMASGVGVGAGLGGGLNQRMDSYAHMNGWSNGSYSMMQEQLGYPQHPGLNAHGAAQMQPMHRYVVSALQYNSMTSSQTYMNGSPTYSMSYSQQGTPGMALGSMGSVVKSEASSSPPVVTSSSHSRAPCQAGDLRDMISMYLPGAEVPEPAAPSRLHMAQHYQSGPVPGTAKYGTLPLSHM
UniProt P80206: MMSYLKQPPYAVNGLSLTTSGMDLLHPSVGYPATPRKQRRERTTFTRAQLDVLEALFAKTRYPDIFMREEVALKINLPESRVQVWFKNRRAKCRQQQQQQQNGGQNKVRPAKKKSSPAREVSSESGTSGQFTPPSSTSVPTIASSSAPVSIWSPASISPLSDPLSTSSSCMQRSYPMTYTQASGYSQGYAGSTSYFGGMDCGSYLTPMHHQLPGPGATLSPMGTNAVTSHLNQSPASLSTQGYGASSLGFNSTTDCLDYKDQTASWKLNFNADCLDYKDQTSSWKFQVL

In the assay the target is SRY-Box Transcription Factor 2 (SOX2) (mouse (endogenous in NOTCH-driven CP tumors)) (UniProt P48432). Kind of assay: co-IP; NOTCH-driven CP tumors; carried out as previously described (ref. 33); which protein was precipitated is not told.

Results are given in words; binding and its absence hold for the method and conditions named. In cells and extracts the contact can be indirect. Some binding calls cover weakened binding; strength is not graded here.

Turning to “orthodenticle homeobox 2 (OTX2) (from UniProt P80206 1-289)”, the binding result is “binds”.
